In PMC9664666 one finds binding data, which are given here for one substance.

Amino acid sequences for entries named in this document (tags omitted).
UniProt Q13257: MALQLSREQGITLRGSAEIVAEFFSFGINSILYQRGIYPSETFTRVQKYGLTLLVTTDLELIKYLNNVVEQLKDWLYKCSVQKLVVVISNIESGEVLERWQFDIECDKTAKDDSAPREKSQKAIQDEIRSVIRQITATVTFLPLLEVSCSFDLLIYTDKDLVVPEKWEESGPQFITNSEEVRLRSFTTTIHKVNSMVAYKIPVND

The target of the assay is T1, Shugoshin-like protein 2 (SGOL2) (human (endogenous in HCC cells SK-HEP-1 and HEP3B)) (UniProt Q562F6).
T1 sequence: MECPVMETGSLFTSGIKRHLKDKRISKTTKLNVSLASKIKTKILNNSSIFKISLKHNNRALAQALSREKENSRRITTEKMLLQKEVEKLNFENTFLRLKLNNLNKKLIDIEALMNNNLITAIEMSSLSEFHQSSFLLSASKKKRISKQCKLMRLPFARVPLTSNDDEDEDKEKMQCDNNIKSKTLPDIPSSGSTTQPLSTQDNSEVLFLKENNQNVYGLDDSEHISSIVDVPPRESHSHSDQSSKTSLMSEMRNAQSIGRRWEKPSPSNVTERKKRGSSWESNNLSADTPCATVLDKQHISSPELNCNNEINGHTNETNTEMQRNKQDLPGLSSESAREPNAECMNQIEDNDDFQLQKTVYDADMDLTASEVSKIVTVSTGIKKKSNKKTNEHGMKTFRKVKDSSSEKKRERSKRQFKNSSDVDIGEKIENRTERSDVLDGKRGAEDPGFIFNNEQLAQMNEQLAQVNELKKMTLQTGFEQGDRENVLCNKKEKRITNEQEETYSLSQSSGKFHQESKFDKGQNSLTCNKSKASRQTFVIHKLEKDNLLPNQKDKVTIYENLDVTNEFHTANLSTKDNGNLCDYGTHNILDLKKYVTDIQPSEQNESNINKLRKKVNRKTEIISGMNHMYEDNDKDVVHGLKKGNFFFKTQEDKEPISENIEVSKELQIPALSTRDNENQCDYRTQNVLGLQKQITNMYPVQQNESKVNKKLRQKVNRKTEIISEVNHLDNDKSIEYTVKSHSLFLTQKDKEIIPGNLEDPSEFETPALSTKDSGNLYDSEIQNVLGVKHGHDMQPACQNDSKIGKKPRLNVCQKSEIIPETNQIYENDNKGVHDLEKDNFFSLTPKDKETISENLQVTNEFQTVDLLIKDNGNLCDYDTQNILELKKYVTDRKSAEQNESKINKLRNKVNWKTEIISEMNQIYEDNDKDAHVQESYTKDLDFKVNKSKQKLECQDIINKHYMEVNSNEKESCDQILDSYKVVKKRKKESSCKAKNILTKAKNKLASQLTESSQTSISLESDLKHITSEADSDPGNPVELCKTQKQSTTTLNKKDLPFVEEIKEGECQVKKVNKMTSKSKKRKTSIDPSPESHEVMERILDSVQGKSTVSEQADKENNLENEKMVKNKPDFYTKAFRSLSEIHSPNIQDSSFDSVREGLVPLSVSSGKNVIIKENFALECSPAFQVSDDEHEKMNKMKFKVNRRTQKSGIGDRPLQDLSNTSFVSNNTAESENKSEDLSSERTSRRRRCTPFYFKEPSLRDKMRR
The assay can be described thus: co-IP; endogenous proteins in HCC cells; IP/COIP kit (Absin); SGOL2 antibody (Bethyl A301-262A) and MAD2 antibody (Bethyl A300-301A) for WB/Co-IP; normal rabbit IgG listed.

These are yes or no findings as the source states them, for the method shown. Binding seen in cells or lysates may run through a third protein. Some entries that bind do so weakly or less than the wild type.

For the substance “mitotic arrest deficient 2 like 1 (MAD2) (from UniProt Q13257 1-205)”, the binding entry is listed as “binds”.
